This passage reports binding results from PMC12864446.

Protein sequences, listed by entry. Tags and fused reporters are not part of them. Residues count along the entry.
UniProt Q94AQ8, residues 18-348: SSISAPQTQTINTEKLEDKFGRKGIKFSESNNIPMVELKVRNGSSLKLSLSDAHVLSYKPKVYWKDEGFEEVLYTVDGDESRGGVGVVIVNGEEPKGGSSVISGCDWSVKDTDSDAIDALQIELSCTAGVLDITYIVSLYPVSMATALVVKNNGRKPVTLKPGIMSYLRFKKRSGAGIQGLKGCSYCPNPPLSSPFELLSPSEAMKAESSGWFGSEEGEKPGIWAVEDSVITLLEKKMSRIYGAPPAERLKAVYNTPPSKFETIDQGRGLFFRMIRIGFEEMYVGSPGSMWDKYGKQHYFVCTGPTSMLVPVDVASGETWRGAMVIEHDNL
UniProt Q9LZV4, residues 50-495: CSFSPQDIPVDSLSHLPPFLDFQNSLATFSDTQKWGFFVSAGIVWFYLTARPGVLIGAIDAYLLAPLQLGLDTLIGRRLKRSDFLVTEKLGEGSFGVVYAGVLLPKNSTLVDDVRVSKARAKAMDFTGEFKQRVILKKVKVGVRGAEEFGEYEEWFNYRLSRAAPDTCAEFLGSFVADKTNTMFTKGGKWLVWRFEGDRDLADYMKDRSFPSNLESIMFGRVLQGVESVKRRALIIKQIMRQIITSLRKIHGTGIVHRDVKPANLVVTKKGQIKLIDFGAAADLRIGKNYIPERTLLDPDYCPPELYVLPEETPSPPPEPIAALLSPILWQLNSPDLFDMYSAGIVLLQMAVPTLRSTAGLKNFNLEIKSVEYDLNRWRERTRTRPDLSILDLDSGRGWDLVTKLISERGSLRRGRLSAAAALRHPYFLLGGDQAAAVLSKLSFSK
UniProt Q9FG89, residues 49-212: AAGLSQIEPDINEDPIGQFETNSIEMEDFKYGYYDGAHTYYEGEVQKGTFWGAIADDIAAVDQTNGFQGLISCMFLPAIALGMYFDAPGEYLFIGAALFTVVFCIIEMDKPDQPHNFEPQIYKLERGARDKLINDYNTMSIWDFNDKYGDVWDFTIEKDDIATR
UniProt P56756: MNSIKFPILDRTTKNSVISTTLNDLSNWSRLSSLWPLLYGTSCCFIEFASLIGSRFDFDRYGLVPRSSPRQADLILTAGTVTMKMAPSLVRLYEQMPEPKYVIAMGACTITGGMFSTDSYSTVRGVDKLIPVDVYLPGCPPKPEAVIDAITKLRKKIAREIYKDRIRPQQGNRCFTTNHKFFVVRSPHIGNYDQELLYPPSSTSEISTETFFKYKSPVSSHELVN
UniProt P26289: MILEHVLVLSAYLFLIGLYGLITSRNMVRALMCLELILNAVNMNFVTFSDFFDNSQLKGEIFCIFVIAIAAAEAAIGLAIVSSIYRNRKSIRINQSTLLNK

The labels stand for the following.
B1: PGRL1A (protein, UniProt Q8H112 61-324)
chain: ATTEQSGPVGGDNVDSNVLPYCSINKAEKKTIGEMEQEFLQALQSFYYDGKAIMSNEEFDNLKEELMWEGSSVVMLSSDEQRFLEASMAYVSGNPILNDEEYDKLKLKLKIDGSDIVSEGPRCSLRSKKVYSDLAVDYFKMLLLNVPATVVALGLFFFLDDITGFEITYIMELPEPYSFIFTWFAAVPVIVYLALSITKLIIKDFLILKGPCPNCGTENTSFFGTILSISSGGKTNTVKCTNCGTAMVYDSGSRLITLPEGSQA
B2: STN7 (enzyme, UniProt Q9S713 46-562)
chain: AQLIDTVHNLFIGVGVGLPCTVMECGDMIYRSTLPKSNGLTITAPGVALALTALSYLWATPGVAPGFFDMFVLAFVERLFRPTFRKDDFVVGKKLGEGSFGVVYKVSLSKKRSNEEGEYVLKKATEYGAVEIWMNERVRRACGNSCADFVYGFLDKSSKKGPEYWLLWKYEGESTLAGLMQSKEFPYNVETIILGKVQDLPKGLERENKIIQTIMRQLLFALDGLHSTGIIHRDVKPQNIIFSEGSRSFKIIDLGAAADLRVGINYIPKEFLLDPRYAAPEQYIMSTQTPSAPSAPVAAALSPVLWQMNLPDRFDIYSIGLIFLQMAFPSLRSDSNLIQFNRQLKRCDYDLTAWRKLVEPRASADLRRGFELVDLDGGIGWELLTSMVRYKARQRISAKAALAHPYFDRQGLLALSVMQNLRMQYFRATQQDYSEAANWVIQLMAKNGTEKDGGFTETQLQELREKEPRKKANAQRNALASALRLQRKLVKTVTETIDEISDGRKTVWWNRWIPREE
B3: Y3IP1 (protein, UniProt Q9LU01 63-280)
chain: KQEKGDVTEIRVPVPLTLEQQEKEKQNRDDEEDEIDEGDVDPEDLKYVNEIKRVIELLRRNRDMIFSEVKLTIMIEDPRELERRRLLGIEDADTPSRDDLAEALEQVNDGKIPKDRATLRMLHEEMIRWPNLEVEVSKKQRGKSMYAKSTDTGIDPKEAAKRLNVEWDSAAAIEEVDVDDEQGVVTKVAGYGALYFVSALPVIIGISVVLILFYNSLQ
B4: FtSH1 (enzyme, UniProt Q39102 87-716)
chain: VVDEPASPSVVIESQAVKPSTPSPLFIQNEILKAPSPKSSDLPEGSQWRYSEFLNAVKKGKVERVRFSKDGSVVQLTAVDNRRASVIVPNDPDLIDILAMNGVDISVSEGESSGNDLFTVIGNLIFPLLAFGGLFLLFRRAQGGPGGGPGGLGGPMDFGRSKSKFQEVPETGVSFADVAGADQAKLELQEVVDFLKNPDKYTALGAKIPKGCLLVGPPGTGKTLLARAVAGEAGVPFFSCAASEFVELFVGVGASRVRDLFEKAKSKAPCIVFIDEIDAVGRQRGAGMGGGNDEREQTINQLLTEMDGFSGNSGVIVLAATNRPDVLDSALLRPGRFDRQVTVDRPDVAGRVKILQVHSRGKALGKDVDFDKVARRTPGFTGADLQNLMNEAAILAARRELKEISKDEISDALERIIAGPEKKNAVVSEEKKRLVAYHEAGHALVGALMPEYDPVAKISIIPRGQAGGLTFFAPSEERLESGLYSRSYLENQMAVALGGRVAEEVIFGDENVTTGASNDFMQVSRVARQMIERFGFSKKIGQVAVGGPGGNPFMGQQMSSQKDYSMATADIVDAEVRELVEKAYKRATEIITTHIDILHKLAQLLIEKETVDGEEFMSLFIDGQAELYIS
B5: PSII protein PSBQ1 (protein, UniProt Q9XFT3 76-224)
chain: DAISIKVGPPPAPSGGLPAGTDNSDQARDFALALKDRFYLQPLPPTEAAARAKESAKDIINVKPLIDRKAWPYVQNDLRSKASYLRYDLNTIISSKPKDEKKSLKDLTTKLFDTIDNLDYAAKKKSPSQAEKYYAETVSALNEVLAKLG
B6: SOQ1 (protein, UniProt Q8VZ10 57-1055)
chain: VAAESPAATIATDDWGKVSAVLFDMDGVLCNSEDLSRRAAVDVFTEMGVEVTVDDFVPFMGTGEAKFLGGVASVKEVKGFDPDAAKERFFEIYLDKYAKPESGIGFPGALELVTECKNKGLKVAVASSADRIKVDANLKAAGLSLTMFDAIVSADAFENLKPAPDIFLAAAKILGVPTSECVVIEDALAGVQAAQAANMRCIAVKTTLSEAILKDAGPSMIRDDIGNISINDILTGGSDSTRNSTAMLEENTVSDKTSANGFQGSRRDILRYGSLGIALSCVYFAATNWKAMQYASPKALWNALVGAKSPSFTQNQGEGRVQQFVDYIADLESKQTATTVPEFPSKLDWLNTAPLQFRRDLKGKVVILDFWTYCCINCMHVLPDLEFLEKKYKDMPFTVVGVHSAKFDNEKDLDAIRNAVLRYDISHPVVNDGDMYMWRELGINSWPTFAVVSPNGKVIAQIAGEGHRKDLDDVVAAALTYYGGKNVLDSTPLPTRLEKDNDPRLATSPLKFPGKLAIDTLNNRLFISDSNHNRIIVTDLEGNFIVQIGSSGEEGFQDGSFEDAAFNRPQGLAYNAKKNLLYVADTENHALREIDFVNERVQTLAGNGTKGSDYQGGRKGTKQLLNSPWDVCFEPVNEKVYIAMAGQHQIWEYSVLDGITRVFSGNGYERNLNGSTPQTTSFAQPSGISLGPDLKEAYIADSESSSIRALDLQTGGSRLLAGGDPYFSENLFKFGDNDGVGAEVLLQHPLGVLCANDGQIYLTDSYNHKIKKLDPVTKRVVTLAGTGKAGFKDGKVKGAQLSEPAGLAITENGRLFVADTNNSLIRYIDLNKGEDSEILTLELKGVQPPTPKAKSLKRLRKRASADTKIVKVDSVTSREGDLNLKISLPDGYHFSKEARSKFVVDVEPENAVAIDPTEGTLSPEGSTMLHFIQSSTSASVGKISCKVYYCKEDEVCLYQSVQFEVPFKVESELSASPTITFTVTPRAPDAGGLQLQGTR
B7: YCF3 (protein, UniProt P61843 1-168)
chain: MPRSRINGNFIDKTFTIVADILLRVIPTTSGEKEAFTYYRDGMSAQSEGNYAEALQNYYEAMRLEIDPYDRSYILYNIGLIHTSNGEHTKALEYYFRALERNPFLPQAFNNMAVICHYRGEQAIQQGDSEMAEAWFAQAAEYWKQAITLTPGNYIEAQNWLTITRRFE
B8: proton gradient regulation 5-like photosynthetic phenotype 1B (PGRL1B) (protein, UniProt Q8GYC7 50-313)
chain: ASTDQSGQVGGEEVDSKILPYCSINKNEKRTIGEMEQEFLQAMQSFYYEGKAIMSNEEFDNLKEELMWEGSSVVMLSSDEQRFLEASMAYVSGNPILSDEEYDKLKMKLKMDGSEIVCEGPRCSLRSKKVYSDLAIDYFKMFLLNVPATVVALGLFFFLDDITGFEITYLLELPEPFSFIFTWFAAVPAIVYLALSLTKLILKDFLILKGPCPNCGTENVSFFGTILSIPNDSNTNNVKCSGCGTEMVYDSGSRLITLPEGGKA
B9: ZEP (Zeaxanthin epoxidase) (enzyme, UniProt Q9FGC7 60-667)
chain: AATALVEKEEKREAVTEKKKKSRVLVAGGGIGGLVFALAAKKKGFDVLVFEKDLSAIRGEGKYRGPIQIQSNALAALEAIDIEVAEQVMEAGCITGDRINGLVDGISGTWYVKFDTFTPAASRGLPVTRVISRMTLQQILARAVGEDVIRNESNVVDFEDSGDKVTVVLENGQRYEGDLLVGADGIWSKVRNNLFGRSEATYSGYTCYTGIADFIPADIESVGYRVFLGHKQYFVSSDVGGGKMQWYAFHEEPAGGADAPNGMKKRLFEIFDGWCDNVLDLLHATEEEAILRRDIYDRSPGFTWGKGRVTLLGDSIHAMQPNMGQGGCMAIEDSFQLALELDEAWKQSVETTTPVDVVSSLKRYEESRRLRVAIIHAMARMAAIMASTYKAYLGVGLGPLSFLTKFRVPHPGRVGGRFFVDIAMPSMLDWVLGGNSEKLQGRPPSCRLTDKADDRLREWFEDDDALERTIKGEWYLIPHGDDCCVSETLCLTKDEDQPCIVGSEPDQDFPGMRIVIPSSQVSKMHARVIYKDGAFFLMDLRSEHGTYVTDNEGRRYRATPNFPARFRSSDIIEFGSDKKAAFRVKVIRKTPKSTRKNESNNDKLLQTA
B10: YCF4 (protein, UniProt P56788 1-184)
chain: MSWRSESIWIEFITGSRKTSNFCWAFILFLGSLGFLLVGTSSYLGRNVISLFPSQQIIFFPQGIVMSFYGIAGLFISCYLWCTILWNVGSGYDLFDRKEGIVRIFRWGFPGKSRRIFLRFFMKDIQSIRIEVKEGVSARRVLYMEIRGQGAIPLIRTDENFTTREIEQKAAELAYFLRVPIEVF
B11: Light-regulated protein 1 (LIR1) (protein, UniProt Q96500 42-141)
chain: SNNSSSSSSLTSDPNTVDYNSSILSVFPAEACEVISGYACSADIYPEVKLDTKPVSRPVASEPVDREYEEYNSPKTVFREEACDDLGGEFCEPDFQKDAN
B12: DEGP2 (enzyme, UniProt O82261 70-607)
chain: DESSNPPQKMAFKAFGSPKKEKKESLSDFSRDQQTDPAKIHDASFLNAVVKVYCTHTAPDYSLPWQKQRQFTSTGSAFMIGDGKLLTNAHCVEHDTQVKVKRRGDDRKYVAKVLVRGVDCDIALLSVESEDFWKGAEPLRLGHLPRLQDSVTVVGYPLGGDTISVTKGVVSRIEVTSYAHGSSDLLGIQIDAAINPGNSGGPAFNDQGECIGVAFQVYRSEETENIGYVIPTTVVSHFLTDYERNGKYTGYPCLGVLLQKLENPALRECLKVPTNEGVLVRRVEPTSDASKVLKEGDVIVSFDDLHVGCEGTVPFRSSERIAFRYLISQKFAGDIAEIGIIRAGEHKKVQVVLRPRVHLVPYHIDGGQPSYIIVAGLVFTPLSEPLIEEECEDTIGLKLLTKARYSVARFRGEQIVILSQVLANEVNIGYEDMNNQQVLKFNGIPIRNIHHLAHLIDMCKDKYLVFEFEDNYVAVLEREASNSASLCILKDYGIPSERSADLLEPYVDPIDDTQALDQGIGDSPVSNLEIGFDGLVWA

Results are given in words; binding and its absence hold for the method and conditions named. In cells and extracts the contact can be indirect. These calls come from enrichment with a bait or labelling near it, and not all partners need be listed. Where a sequence is shown, tags or fusion partners need not be part of it.

The test concerns the target T1, PsbS-TurboID-eGFP (Arabidopsis thaliana) (UniProt Q9XF91).
T1 sequence: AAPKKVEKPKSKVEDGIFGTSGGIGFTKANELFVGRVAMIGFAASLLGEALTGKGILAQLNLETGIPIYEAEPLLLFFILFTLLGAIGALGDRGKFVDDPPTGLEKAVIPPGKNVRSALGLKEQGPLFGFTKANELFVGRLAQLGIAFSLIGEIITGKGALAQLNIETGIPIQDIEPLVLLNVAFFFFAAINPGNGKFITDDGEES
The test can be described thus: proximity labelling; TurboID fused to PsbS in stable Arabidopsis seedlings (5-day old); 50 µM biotin, 3 h, 22°C, under high light (600 µmol m-2 s-1) or in the dark; streptavidin magnetic beads, LC-MS/MS, LFQ against the control PTP-TurboID-eGFP (log2 FC >= 1).
Take PnsB2 (from UniProt Q94AQ8 18-348): the binding result was “binds”.

Consider “STN8 (from UniProt Q9LZV4 50-495) (enzyme)”, for which the binding result is “binds”. To RIQ1 belongs “binds”; to PnsB5 (from UniProt Q9FG89 49-212), “binds”. Then Lhcb3 (from UniProt Q9S7M0 23-265), with “binds”; and thioredoxin X (THX), with “binds”.

Regarding Lhcb1.5, the binding result was “binds”.

With NdhK (from UniProt P56756 1-225), the binding result was “binds”. As for CP24, the binding entry is reported as “binds”. To NdhE (from UniProt P26289 1-101) belongs “binds”; to B1, “binds”; to B2, “binds”. Consider B3, for which the binding result was “binds”. Then B4, with “binds”; and B5, with “binds”. Then B6, with “binds”; and B7, with “binds”; and B8, with “binds”. Then B9, with “binds”. On to B10, for which the binding entry is given as “binds”.

As to B11, the binding result is on record as “binds”. To B12 belongs “binds”.
